No constants are given. Whether binding was seen depends on the method and setting. Some results given as binding are weak or reduced against the parent protein; the word gives no strength.
Tests used:
[1] = target: T1, rat GPCR135 (rat); test: receptor autoradiography, 7 pM, rat brain: cortex, visual
T1 sequence: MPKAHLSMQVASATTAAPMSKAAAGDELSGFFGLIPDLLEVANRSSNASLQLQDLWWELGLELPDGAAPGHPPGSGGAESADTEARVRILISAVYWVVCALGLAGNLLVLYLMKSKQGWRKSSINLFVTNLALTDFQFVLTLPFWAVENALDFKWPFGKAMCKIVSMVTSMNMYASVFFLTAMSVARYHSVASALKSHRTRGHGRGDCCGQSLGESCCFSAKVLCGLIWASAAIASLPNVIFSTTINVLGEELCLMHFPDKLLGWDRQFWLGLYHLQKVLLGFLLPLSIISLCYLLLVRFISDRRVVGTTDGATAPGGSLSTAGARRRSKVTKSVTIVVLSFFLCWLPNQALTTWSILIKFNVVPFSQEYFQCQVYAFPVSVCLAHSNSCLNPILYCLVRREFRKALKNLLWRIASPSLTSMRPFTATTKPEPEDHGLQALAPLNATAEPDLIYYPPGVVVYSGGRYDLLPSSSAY

Protein sequences, listed by entry. Tags and fused reporters are not part of them. Lines headed by an entry give the natural chain unless they say otherwise; changes in a name come on top.
UniProt Q8TDU9: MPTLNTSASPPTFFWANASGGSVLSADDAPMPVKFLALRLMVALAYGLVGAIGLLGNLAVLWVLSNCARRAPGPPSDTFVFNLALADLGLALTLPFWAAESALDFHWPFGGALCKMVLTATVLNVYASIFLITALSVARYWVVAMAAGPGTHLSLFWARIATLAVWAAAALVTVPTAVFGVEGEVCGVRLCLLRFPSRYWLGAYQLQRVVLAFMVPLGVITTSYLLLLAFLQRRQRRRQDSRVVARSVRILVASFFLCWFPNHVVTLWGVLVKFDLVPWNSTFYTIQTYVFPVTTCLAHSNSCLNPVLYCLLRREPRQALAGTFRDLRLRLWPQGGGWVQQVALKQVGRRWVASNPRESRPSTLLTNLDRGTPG
UniProt Q8WXD0: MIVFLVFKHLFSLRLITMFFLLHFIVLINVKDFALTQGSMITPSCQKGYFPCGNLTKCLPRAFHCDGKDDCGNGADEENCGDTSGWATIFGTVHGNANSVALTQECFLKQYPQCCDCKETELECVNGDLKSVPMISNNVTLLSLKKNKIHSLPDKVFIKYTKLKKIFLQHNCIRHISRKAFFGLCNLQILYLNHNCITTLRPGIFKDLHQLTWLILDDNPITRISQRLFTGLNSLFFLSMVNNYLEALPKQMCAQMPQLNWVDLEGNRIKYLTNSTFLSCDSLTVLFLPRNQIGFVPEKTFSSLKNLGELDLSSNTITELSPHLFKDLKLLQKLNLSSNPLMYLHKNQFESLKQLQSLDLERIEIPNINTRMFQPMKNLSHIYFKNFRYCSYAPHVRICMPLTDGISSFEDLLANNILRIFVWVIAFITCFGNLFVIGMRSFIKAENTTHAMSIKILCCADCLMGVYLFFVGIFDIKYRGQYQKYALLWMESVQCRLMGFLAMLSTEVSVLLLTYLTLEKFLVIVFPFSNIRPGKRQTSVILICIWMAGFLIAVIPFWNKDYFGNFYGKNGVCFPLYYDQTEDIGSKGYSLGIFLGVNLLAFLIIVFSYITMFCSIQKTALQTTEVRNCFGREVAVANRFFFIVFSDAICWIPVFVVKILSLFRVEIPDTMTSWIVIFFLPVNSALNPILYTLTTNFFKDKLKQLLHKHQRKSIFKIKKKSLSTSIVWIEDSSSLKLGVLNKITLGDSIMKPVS

[2] = target: T1, rat GPCR135 (rat); test: receptor autoradiography, 7 pM, rat brain: amygdaloid body, medial nucleus
[3] = target: T1, rat GPCR135 (rat); test: receptor autoradiography, 7 pM, rat brain: amygdaloid body, central nucleus
[4] = target: T2, human GPCR135 (human, UniProt Q9NSD7 1-469); test: direct radioligand binding, 100 pM, COS-7 cells transfected with human GPCR135
T2 sequence: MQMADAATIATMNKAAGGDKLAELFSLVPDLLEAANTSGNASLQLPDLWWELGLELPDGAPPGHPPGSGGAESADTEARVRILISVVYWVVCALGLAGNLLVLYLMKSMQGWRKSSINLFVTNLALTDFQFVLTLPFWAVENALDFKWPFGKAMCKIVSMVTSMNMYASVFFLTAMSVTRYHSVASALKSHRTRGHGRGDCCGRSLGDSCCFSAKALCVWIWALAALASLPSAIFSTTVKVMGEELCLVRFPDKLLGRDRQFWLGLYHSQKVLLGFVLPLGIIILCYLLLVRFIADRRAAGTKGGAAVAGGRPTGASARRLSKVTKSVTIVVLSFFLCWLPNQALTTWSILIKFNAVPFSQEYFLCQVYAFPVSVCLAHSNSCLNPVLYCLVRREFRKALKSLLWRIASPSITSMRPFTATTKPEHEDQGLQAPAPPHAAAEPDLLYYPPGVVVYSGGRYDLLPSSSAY

[5] = target: T1, rat GPCR135 (rat); test: receptor autoradiography, 7 pM, rat brain: thalamus, centro medial
[6] = target: T1, rat GPCR135 (rat); test: receptor autoradiography, 7 pM, rat brain: septal region, lateral
[7] = target: T1, rat GPCR135 (rat); test: receptor autoradiography, 7 pM, rat brain: cortex, temporal
[8] = target: T2, human GPCR135; test: direct radioligand binding, monolayer cells expressing recombinant GPCR135
[9] = target: T1, rat GPCR135 (rat); test: receptor autoradiography, 7 pM, rat brain: hippocampal formation, CAB field (so in the source)
[10] = target: T1, rat GPCR135 (rat); test: receptor autoradiography, 7 pM, rat brain: hypothalamus, supraoptic nucleus
[11] = target: T1, rat GPCR135 (rat); test: receptor autoradiography, 7 pM, rat brain: cortex, somatosensory
[12] = target: T1, rat GPCR135 (rat); test: receptor autoradiography, 7 pM, rat brain: cortex, piriform
[13] = target: T1, rat GPCR135 (rat); test: receptor autoradiography, 7 pM, rat brain: anterior olfactory nucleus
[14] = target: T1, rat GPCR135 (rat); test: receptor autoradiography, 7 pM, rat brain: bed nucleus stria terminalis
[15] = target: T1, rat GPCR135 (rat); test: receptor autoradiography, 7 pM, rat brain: hippocampal formation, dentate gyrus
[16] = target: T1, rat GPCR135 (rat); test: receptor autoradiography, 7 pM, rat brain: hypothalamus, paraventricular nucleus
[17] = target: T1, rat GPCR135 (rat); test: receptor autoradiography, 7 pM, rat brain: brain stem, periaqueductal gray area
[18] = target: T1, rat GPCR135 (rat); test: receptor autoradiography, rat brain sections
[19] = target: T1, rat GPCR135 (rat); test: receptor autoradiography, 7 pM, rat brain: brain stem, interpeduncular nucleus
[20] = target: T1, rat GPCR135 (rat); test: receptor autoradiography, 7 pM, rat brain: amygdaloid body, lateral nucleus
[21] = target: T1, rat GPCR135 (rat); test: receptor autoradiography, 7 pM, rat brain: brain stem, spinal trigeminal tract
[22] = target: T1, rat GPCR135 (rat); test: receptor autoradiography, 7 pM, rat brain: brain stem, nucleus incertus
[23] = target: T1, rat GPCR135 (rat); test: receptor autoradiography, 5 pM tracer, rat brain sagittal sections
[24] = target: T1, rat GPCR135 (rat); test: receptor autoradiography, 7 pM, rat brain: brain stem, inferior colliculus
[25] = target: T1, rat GPCR135 (rat); test: receptor autoradiography, 7 pM, rat brain: thalamus, paraventricular
[26] = target: T1, rat GPCR135 (rat); test: receptor autoradiography, 7 pM, rat brain: olfactory bulb (density of binding sites)
[27] = target: T1, rat GPCR135 (rat); test: receptor autoradiography, 7 pM, rat brain: brain stem, superior colliculus
[28] = target: T1, rat GPCR135 (rat); test: receptor autoradiography, 7 pM, rat brain: habenula, medial
[29] = target: T3, human LGR7 (human, UniProt Q9HBX9 1-757); test: discussion of the binding and functional results
T3 sequence (looked up): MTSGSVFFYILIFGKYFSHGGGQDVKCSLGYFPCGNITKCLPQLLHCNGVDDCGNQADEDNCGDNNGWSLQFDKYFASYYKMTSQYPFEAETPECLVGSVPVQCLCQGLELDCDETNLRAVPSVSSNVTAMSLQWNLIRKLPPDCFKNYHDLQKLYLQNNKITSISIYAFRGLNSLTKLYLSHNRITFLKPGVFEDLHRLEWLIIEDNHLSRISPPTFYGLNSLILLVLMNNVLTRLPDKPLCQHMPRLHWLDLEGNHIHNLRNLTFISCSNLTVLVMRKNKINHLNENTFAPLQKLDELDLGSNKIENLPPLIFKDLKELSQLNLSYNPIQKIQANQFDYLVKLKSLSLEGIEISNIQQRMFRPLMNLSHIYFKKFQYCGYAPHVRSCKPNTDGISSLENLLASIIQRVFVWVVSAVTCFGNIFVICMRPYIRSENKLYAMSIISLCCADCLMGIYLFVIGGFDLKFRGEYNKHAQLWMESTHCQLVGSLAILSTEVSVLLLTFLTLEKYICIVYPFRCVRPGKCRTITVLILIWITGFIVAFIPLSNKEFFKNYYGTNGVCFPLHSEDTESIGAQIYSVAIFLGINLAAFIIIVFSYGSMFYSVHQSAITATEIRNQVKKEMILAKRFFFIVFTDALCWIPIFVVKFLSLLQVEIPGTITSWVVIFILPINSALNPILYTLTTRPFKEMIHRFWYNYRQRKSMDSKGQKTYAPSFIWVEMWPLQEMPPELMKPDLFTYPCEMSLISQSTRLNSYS

[30] = target: T4, human GPCR142 (human, UniProt Q8TDU9 1-374); test: discussion of the binding and functional results
[31] = target: T2, human GPCR135; test: discussion of the binding and functional results
[32] = target: T1, rat GPCR135 (rat); test: receptor autoradiography, 7 pM, rat brain: amygdalohippocampal area
[33] = target: T1, rat GPCR135 (rat); test: receptor autoradiography, 7 pM, rat brain: cortex, motor
[34] = target: T1, rat GPCR135 (rat); test: receptor autoradiography, 7 pM, rat brain: brain stem, dorsal raphe, dorsal part
[35] = target: T4, human GPCR142; test: radioligand competition, COS-7 membranes
[36] = target: T2, human GPCR135; test: radioligand competition, COS-7 membranes
[37] = target: T1, rat GPCR135 (rat); test: receptor autoradiography, 7 pM, rat brain: thalamus, centro lateral
[38] = target: T3, human LGR7; test: radioligand competition, live COS-7 cells with human LGR7
[39] = target: human LGR8 (human, UniProt Q8WXD0 1-754); test: competition with [125I]-INSL3, live COS-7 cells with human LGR8
[40] = target: T4, human GPCR142; test: discussion of the binding results

Measured: binding

B1: human relaxin-3/INSL5 chimeric polypeptide (R3/I5), mature (ligand)
chain: RAAPYGVRLCGREFIRAVIFTCGGSRWQDLQTLCCTDGCSMTDLSALC
binds: [1] | [2] | [3] | [4] | [5] | [6] | [7] | [8] | [9] | [10] | [11] | [12] | [13] | [14] | [15] | [16] | [17] | [18] | [19] | [20] | [21] | [22] | [23] | [24] | [25] | [26] | [27] | [28] | [29] | [30] | [31] | [32] | [33] | [34] | [35] | [36] | [37]

B2: human relaxin-3/relaxin-2 chimeric polypeptide (R3/R2), mature (ligand)
chain: RAAPYGVRLCGREFIRAVIFTCGGSRWQLYSALANKCCHVGCTKRSLARFC
binds: [38] | [39] | [35] | [36]

B3: human relaxin-3/INSL6 chimeric polypeptide (R3/I6), mature (ligand)
chain: RAAPYGVRLCGREFIRAVIFTCGGSRWGYSEKCCLTGCTKEELSIAC
binds: [40] | [35] | [36]

B4: human relaxin-3/INSL4 chimeric polypeptide (R3/I4), mature (ligand)
chain: RAAPYGVRLCGREFIRAVIFTCGGSRWFDPFCCEVICDDGTSVKLC
binds: [35] | [36]
